# PubChem BioAssay AID1259405 | NCATS, 2018
# Assay: 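Knock-downs that lift recombinant protein yield in hamster ovary cells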 (primary screen)
# System: Chinese hamster CHO-K1 ovary cells with stable secreted eGFP expression
# Reagents: single siRNA against mouse genes, 0.8 pmol siRNA per well (2 µl of 400 nM stock)
# Timing: 3 days
# Measurement: 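Per-well intracellular GFP measured by laser scanning cytometry, plus viability from ATP luminescence, each relative to plate median of non-targeting control wells, in %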
# Direction: GFP, % of control: higher = more GFP per well, higher productivity; viability (ATP), % of control: higher = more viable cells (more ATP)
# Active means: 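Called active when intracellular GFP, relative to negative control, is at or above 120%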
# Shown is an unselected part of about 50,000 deposited reagents. About 4,000 of all reagents (8%) were called active. 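Mouse siRNA library applied to hamster cells; one well for each siRNA.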 Reagents against one gene are numbered here.
"GFP, % of control","viability (ATP), % of control",Call,gene knocked down,reagent
48.4,64.3,inactive,Rnf113a2,1
57.3,35.6,inactive,Rnf113a2,2
60,58.9,inactive,Rnf113a2,3
108,78.9,inactive,Sts,1
85.2,96.8,inactive,Sts,2
74.5,74.2,inactive,Sts,3
106,82.5,inactive,Ranbp3l,1
69.9,79.3,inactive,Ranbp3l,2
77.3,56.2,inactive,Ranbp3l,3
49.3,69.5,inactive,Brd3,1
95.7,84.3,inactive,Brd3,2
53.5,61.9,inactive,Brd3,3
103,89.9,inactive,Acsf2,1
62.5,81.9,inactive,Acsf2,2
111,49,inactive,Acsf2,3
29.4,47.1,inactive,Prdx3,1
63.4,65.4,inactive,Prdx3,2
108,81.9,inactive,Prdx3,3
115,67.2,inactive,Spata31,1
92.5,85.2,inactive,Spata31,2
118,139,inactive,Spata31,3
90.1,92,inactive,Rybp,1
113,66.6,inactive,Rybp,2
87.3,68.1,inactive,Aknad1,1
30,54.5,inactive,Aknad1,2
64.5,59.5,inactive,Aknad1,3
65.4,105,inactive,Snrpb,1
78.5,82.5,inactive,Snrpb,2
67.6,42.8,inactive,Snrpb,3
112,93.2,inactive,Prph,1
57,59.3,inactive,Prph,2
67.7,59.5,inactive,Lmf2,1
92.6,85.7,inactive,Lmf2,2
60.9,72.8,inactive,Lmf2,3
32.2,49.7,inactive,Myh9,1
59,58.6,inactive,Myh9,2
73.5,61,inactive,A930017M01Rik,1
85.8,73.7,inactive,A930017M01Rik,2
52.5,61.9,inactive,A930017M01Rik,3
106,99.8,inactive,Hsf1,1
90.5,72.6,inactive,Hsf1,2
106,104,inactive,Hsf1,3
69.4,68.8,inactive,Tbx20,1
75.3,68.5,inactive,Tbx20,2
84.7,62.4,inactive,Tbx20,3
58.2,37.5,inactive,Sass6,1
89.1,80.3,inactive,Sass6,2
73,76.4,inactive,Sass6,3
64.1,44.7,inactive,Zfp574,1
97.3,92,inactive,Zfp574,2
36.6,86,inactive,Ttc13,1
68.7,95.5,inactive,Ttc13,2
64.8,57.7,inactive,Ttc13,3
8.41,23.6,inactive,Lrrc40,1
140,72.3,active,Lrrc40,2
62.6,65.3,inactive,Lrrc40,3
150,151,active,Ctps1,1
42,50.3,inactive,Ctps1,2
60.4,119,inactive,Ctps1,3
